These are yes or no findings as the source states them, for the method shown. Binding seen in cells or lysates may run through a third protein. Some results given as binding are weak or reduced against the parent protein; the word gives no strength.
T1: IKKα (human (endogenous in Hep3B, MHCC97L, MHCC97H)) (UniProt O15111)
T1 sequence: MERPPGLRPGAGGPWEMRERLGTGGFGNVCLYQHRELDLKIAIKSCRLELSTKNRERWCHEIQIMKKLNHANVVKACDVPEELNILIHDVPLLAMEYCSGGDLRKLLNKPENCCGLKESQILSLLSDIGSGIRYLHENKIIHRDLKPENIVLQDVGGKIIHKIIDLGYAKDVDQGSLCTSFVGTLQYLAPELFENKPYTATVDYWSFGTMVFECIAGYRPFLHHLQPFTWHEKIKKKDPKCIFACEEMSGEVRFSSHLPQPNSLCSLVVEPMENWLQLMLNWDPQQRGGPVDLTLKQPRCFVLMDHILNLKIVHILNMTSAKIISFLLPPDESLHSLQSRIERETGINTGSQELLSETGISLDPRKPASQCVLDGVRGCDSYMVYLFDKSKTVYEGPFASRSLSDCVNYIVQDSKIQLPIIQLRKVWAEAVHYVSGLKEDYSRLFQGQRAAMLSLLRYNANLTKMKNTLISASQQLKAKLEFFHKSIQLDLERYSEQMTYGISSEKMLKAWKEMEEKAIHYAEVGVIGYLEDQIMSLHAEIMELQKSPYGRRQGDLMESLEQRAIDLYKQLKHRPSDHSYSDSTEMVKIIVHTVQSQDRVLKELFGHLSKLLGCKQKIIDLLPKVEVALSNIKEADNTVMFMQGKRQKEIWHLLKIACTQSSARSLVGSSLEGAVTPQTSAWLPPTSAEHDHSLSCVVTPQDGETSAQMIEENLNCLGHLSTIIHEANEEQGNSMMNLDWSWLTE

Protein sequences, listed by entry. Tags and fused reporters are not part of them.
UniProt P04792: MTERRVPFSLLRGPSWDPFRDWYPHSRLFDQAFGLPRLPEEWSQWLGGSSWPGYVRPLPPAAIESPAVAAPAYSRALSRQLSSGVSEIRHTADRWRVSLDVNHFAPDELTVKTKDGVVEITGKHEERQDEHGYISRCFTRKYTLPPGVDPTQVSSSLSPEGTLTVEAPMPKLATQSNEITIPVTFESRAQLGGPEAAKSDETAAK


How the values were obtained:
[1] = molecular target: Heat shock protein 27 (human (endogenous in Hep3B, MHCC97L, MHCC97H)), P04792; experiment: co-IP; immunoprecipitation with anti-HSP27 antibody from lysates (1 mg total protein) of Hep3B, MHCC97L and MHCC97H cells, 4°C overnight, Protein G-Sepharose; western blot; 20 mM Tris pH 7.5, 150 mM NaCl, 1% Triton X-100; details: remark: other sources report otherwise
[2] = molecular target: T1, IKKα (human (endogenous in Hep3B, MHCC97L, MHCC97H)); experiment: co-IP; immunoprecipitation with anti-IKKα antibody from lysates of Hep3B, MHCC97L and MHCC97H cells (HSP27, phospho-HSP27 blots) and of HSP27 RNAi, MOCK and untreated MHCC97H cells (IKKβ blot), 4°C overnight, Protein G-Sepharose; western blot; 20 mM Tris pH 7.5, 150 mM NaCl, 1% Triton X-100
[3] = molecular target: Heat shock protein 27 (human (endogenous in Hep3B, MHCC97L, MHCC97H)) (UniProt P04792); experiment: co-IP; immunoprecipitation with anti-HSP27 antibody from lysates (1 mg total protein) of Hep3B, MHCC97L and MHCC97H cells, 4°C overnight, Protein G-Sepharose; western blot; 20 mM Tris pH 7.5, 150 mM NaCl, 1% Triton X-100

Binder | binding [1] | binding [2] | binding [3]
IKKα, O15111 1-745 (protein) MERPPGLRPGAGGPWEMRERLGTGGFGNVCLYQHRELDLKIAIKSCRLELSTKNRERWCHEIQIMKKLNHANVVKACDVPEELNILIHDVPLLAMEYCSGGDLRKLLNKPENCCGLKESQILSLLSDIGSGIRYLHENKIIHRDLKPENIVLQDVGGKIIHKIIDLGYAKDVDQGSLCTSFVGTLQYLAPELFENKPYTATVDYWSFGTMVFECIAGYRPFLHHLQPFTWHEKIKKKDPKCIFACEEMSGEVRFSSHLPQPNSLCSLVVEPMENWLQLMLNWDPQQRGGPVDLTLKQPRCFVLMDHILNLKIVHILNMTSAKIISFLLPPDESLHSLQSRIERETGINTGSQELLSETGISLDPRKPASQCVLDGVRGCDSYMVYLFDKSKTVYEGPFASRSLSDCVNYIVQDSKIQLPIIQLRKVWAEAVHYVSGLKEDYSRLFQGQRAAMLSLLRYNANLTKMKNTLISASQQLKAKLEFFHKSIQLDLERYSEQMTYGISSEKMLKAWKEMEEKAIHYAEVGVIGYLEDQIMSLHAEIMELQKSPYGRRQGDLMESLEQRAIDLYKQLKHRPSDHSYSDSTEMVKIIVHTVQSQDRVLKELFGHLSKLLGCKQKIIDLLPKVEVALSNIKEADNTVMFMQGKRQKEIWHLLKIACTQSSARSLVGSSLEGAVTPQTSAWLPPTSAEHDHSLSCVVTPQDGETSAQMIEENLNCLGHLSTIIHEANEEQGNSMMNLDWSWLTE | binds |  | 
IKKβ (protein, UniProt O14920 1-756) MSWSPSLTTQTCGAWEMKERLGTGGFGNVIRWHNQETGEQIAIKQCRQELSPRNRERWCLEIQIMRRLTHPNVVAARDVPEGMQNLAPNDLPLLAMEYCQGGDLRKYLNQFENCCGLREGAILTLLSDIASALRYLHENRIIHRDLKPENIVLQQGEQRLIHKIIDLGYAKELDQGSLCTSFVGTLQYLAPELLEQQKYTVTVDYWSFGTLAFECITGFRPFLPNWQPVQWHSKVRQKSEVDIVVSEDLNGTVKFSSSLPYPNNLNSVLAERLEKWLQLMLMWHPRQRGTDPTYGPNGCFKALDDILNLKLVHILNMVTGTIHTYPVTEDESLQSLKARIQQDTGIPEEDQELLQEAGLALIPDKPATQCISDGKLNEGHTLDMDLVFLFDNSKITYETQISPRPQPESVSCILQEPKRNLAFFQLRKVWGQVWHSIQTLKEDCNRLQQGQRAAMMNLLRNNSCLSKMKNSMASMSQQLKAKLDFFKTSIQIDLEKYSEQTEFGITSDKLLLAWREMEQAVELCGRENEVKLLVERMMALQTDIVDLQRSPMGRKQGGTLDDLEEQARELYRRLREKPRDQRTEGDSQEMVRLLLQAIQSFEKKVRVIYTQLSKTVVCKQKALELLPKVEEVVSLMNEDEKTVVRLQEKRQKELWNLLKIACSKVRGPVSGSPDSMNASRLSQPGQLMSQPSTASNSLPEPAKKSEELVAEAHNLCTLLENAIQDTVREQDQSFTALDWSWLQTEEEEHSCLEQAS |  | binds | binds
